The supplement of paper PMC6411743
± gives the standard deviation of the averaged measurements. Only a part is listed here, and it is no random draw.

Sequences of proteins named here, by UniProt entry; tags and fusion partners are left off. A change or cut given only in a name is not applied to a line headed by its entry.
UniProt P30414: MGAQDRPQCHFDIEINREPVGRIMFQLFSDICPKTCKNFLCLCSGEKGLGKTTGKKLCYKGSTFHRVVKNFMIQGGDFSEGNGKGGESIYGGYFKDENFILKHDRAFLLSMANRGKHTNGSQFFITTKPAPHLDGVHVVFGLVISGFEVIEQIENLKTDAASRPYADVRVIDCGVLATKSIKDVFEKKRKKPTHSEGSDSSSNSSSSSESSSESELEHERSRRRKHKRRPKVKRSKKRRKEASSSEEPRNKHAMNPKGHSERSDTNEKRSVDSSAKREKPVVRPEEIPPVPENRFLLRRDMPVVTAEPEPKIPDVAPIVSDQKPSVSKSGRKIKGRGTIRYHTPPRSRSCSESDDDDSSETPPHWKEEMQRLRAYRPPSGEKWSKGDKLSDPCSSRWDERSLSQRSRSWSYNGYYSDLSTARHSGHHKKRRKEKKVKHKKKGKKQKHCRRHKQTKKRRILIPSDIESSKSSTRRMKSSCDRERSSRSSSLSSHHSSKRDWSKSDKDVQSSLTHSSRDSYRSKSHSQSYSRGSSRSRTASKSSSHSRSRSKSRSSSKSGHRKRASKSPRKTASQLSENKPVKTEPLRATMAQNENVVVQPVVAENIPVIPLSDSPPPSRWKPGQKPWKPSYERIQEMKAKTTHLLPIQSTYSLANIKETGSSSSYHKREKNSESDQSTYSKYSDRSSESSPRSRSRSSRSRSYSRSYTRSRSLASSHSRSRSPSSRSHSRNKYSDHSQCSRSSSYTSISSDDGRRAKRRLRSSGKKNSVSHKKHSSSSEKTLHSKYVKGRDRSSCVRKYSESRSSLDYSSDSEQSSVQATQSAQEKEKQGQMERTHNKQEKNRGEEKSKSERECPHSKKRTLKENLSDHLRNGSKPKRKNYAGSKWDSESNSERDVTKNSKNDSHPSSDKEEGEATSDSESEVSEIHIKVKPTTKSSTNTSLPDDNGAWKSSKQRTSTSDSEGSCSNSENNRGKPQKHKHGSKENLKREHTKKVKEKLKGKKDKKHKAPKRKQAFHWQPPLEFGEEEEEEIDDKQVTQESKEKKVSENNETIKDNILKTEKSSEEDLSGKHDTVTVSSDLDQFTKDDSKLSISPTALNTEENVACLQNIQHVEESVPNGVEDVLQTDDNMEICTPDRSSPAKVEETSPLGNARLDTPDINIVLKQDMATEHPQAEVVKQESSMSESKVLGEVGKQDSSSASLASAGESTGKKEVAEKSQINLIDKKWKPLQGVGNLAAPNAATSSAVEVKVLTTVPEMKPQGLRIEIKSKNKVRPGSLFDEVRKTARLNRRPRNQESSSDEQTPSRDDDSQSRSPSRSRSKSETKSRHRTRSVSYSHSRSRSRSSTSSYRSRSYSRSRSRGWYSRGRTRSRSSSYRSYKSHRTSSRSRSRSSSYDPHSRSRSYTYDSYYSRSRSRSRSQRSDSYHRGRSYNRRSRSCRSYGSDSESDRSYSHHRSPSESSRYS
UniProt O75818: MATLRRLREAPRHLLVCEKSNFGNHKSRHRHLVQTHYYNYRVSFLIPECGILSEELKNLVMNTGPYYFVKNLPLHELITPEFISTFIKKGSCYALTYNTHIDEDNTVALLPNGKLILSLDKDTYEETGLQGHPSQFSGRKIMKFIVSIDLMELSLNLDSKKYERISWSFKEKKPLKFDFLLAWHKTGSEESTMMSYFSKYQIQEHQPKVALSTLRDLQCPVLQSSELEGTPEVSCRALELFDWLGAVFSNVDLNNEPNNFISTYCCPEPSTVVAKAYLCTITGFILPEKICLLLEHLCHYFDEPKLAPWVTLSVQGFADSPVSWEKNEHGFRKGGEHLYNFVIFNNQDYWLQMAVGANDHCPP
UniProt Q6ZN55: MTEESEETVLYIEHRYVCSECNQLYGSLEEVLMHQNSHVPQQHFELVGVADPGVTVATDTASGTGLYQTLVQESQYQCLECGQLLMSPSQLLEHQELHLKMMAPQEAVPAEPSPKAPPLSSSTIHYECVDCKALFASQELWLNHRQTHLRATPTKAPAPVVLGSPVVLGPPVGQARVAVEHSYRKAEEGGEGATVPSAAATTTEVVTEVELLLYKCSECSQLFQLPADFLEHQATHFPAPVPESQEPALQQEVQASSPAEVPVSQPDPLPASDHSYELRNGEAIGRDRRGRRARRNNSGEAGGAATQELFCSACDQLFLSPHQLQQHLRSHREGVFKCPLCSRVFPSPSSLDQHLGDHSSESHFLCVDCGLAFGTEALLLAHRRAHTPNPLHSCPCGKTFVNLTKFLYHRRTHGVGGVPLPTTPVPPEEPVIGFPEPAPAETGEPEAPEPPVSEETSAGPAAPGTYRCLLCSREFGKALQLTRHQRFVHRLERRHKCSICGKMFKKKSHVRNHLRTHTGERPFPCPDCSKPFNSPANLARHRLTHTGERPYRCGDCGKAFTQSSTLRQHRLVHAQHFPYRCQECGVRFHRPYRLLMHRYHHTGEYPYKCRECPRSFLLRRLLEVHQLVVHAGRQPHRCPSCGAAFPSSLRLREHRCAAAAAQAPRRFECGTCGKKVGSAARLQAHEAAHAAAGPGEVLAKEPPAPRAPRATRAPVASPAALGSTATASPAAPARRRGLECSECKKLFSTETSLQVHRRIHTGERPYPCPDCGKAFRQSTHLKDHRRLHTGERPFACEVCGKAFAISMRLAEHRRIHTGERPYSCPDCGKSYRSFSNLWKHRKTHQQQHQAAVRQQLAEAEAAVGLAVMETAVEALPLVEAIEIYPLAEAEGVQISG
UniProt Q5VT25: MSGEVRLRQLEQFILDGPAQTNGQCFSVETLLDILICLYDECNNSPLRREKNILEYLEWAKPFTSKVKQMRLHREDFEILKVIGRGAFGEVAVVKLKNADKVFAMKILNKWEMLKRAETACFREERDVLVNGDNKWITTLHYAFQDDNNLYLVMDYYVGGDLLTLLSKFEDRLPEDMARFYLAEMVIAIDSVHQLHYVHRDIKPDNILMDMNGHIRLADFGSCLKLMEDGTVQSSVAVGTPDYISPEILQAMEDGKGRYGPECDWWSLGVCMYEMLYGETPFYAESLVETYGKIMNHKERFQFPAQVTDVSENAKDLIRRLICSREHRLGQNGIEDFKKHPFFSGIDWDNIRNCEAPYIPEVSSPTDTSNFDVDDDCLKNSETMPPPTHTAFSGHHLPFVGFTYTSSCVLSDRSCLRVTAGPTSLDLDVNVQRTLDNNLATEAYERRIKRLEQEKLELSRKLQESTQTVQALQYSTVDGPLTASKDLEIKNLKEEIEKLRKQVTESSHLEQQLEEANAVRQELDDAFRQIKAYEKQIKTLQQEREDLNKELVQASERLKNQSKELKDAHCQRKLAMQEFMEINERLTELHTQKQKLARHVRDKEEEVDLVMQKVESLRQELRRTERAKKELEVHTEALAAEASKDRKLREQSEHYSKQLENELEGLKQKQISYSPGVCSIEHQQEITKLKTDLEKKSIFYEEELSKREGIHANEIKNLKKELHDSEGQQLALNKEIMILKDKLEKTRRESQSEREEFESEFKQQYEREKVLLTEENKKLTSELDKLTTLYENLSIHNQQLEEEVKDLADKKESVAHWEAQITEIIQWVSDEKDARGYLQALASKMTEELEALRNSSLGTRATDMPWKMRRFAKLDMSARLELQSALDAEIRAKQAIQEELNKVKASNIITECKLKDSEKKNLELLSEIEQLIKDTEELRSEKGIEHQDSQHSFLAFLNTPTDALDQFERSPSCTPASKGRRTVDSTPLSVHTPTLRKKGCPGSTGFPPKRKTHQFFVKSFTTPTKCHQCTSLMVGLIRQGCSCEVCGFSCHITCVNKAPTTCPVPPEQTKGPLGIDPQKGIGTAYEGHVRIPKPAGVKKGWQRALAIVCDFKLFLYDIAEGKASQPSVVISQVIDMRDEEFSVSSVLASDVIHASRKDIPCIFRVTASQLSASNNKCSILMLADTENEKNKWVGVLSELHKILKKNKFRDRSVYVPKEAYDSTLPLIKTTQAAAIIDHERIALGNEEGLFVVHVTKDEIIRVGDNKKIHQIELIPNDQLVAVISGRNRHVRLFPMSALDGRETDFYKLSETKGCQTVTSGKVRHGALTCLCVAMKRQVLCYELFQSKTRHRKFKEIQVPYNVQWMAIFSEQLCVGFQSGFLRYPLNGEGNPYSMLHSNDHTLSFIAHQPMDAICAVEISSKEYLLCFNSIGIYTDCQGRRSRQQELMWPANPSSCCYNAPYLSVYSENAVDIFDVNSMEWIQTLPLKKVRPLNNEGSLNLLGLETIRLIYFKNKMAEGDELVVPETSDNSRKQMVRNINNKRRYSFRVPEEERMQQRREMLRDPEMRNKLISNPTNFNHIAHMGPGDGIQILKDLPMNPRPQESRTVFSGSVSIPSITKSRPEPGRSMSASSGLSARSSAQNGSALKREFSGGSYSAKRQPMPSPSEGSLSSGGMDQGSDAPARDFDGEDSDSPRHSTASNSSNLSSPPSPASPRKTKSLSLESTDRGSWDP
UniProt Q9UBF8: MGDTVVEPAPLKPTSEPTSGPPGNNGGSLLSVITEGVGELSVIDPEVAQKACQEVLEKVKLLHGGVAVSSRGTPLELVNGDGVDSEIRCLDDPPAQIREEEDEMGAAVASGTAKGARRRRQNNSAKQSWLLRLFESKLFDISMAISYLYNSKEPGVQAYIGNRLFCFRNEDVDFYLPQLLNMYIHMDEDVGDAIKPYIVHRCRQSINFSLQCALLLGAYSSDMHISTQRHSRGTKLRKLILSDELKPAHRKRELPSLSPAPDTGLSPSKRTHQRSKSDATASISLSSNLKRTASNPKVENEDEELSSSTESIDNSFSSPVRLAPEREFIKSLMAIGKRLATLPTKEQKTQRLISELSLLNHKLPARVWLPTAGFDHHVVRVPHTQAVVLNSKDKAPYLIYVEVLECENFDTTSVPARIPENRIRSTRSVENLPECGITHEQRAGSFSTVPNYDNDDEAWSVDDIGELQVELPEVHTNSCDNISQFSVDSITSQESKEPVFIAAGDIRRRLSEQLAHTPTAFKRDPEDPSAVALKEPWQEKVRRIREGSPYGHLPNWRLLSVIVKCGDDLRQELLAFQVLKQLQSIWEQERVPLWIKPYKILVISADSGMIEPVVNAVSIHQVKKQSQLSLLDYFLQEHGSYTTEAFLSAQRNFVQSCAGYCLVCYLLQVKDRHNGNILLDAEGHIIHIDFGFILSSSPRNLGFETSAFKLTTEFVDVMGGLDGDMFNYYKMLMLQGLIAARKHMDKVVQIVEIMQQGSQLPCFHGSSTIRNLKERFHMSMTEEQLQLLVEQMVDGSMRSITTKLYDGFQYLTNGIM
UniProt Q5JUR7: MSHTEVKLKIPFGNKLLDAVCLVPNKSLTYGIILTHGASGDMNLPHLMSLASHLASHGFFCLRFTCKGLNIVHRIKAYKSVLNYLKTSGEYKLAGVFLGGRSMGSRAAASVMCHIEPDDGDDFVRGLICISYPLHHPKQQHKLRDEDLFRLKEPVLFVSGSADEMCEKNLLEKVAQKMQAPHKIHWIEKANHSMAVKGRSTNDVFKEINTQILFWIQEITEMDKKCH
UniProt Q9BSQ5: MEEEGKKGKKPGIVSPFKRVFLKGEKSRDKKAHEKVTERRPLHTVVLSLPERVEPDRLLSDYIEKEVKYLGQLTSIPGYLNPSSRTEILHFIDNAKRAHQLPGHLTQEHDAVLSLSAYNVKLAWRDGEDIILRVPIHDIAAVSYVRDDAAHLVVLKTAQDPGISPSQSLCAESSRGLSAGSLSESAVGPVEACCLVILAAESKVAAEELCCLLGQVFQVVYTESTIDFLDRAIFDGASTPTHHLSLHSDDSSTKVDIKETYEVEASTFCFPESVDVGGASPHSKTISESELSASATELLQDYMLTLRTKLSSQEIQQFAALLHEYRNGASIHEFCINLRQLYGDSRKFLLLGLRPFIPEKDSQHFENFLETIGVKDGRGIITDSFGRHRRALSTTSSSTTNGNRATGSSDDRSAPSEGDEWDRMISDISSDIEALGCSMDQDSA
UniProt Q8IZQ5, whole entry, looked up: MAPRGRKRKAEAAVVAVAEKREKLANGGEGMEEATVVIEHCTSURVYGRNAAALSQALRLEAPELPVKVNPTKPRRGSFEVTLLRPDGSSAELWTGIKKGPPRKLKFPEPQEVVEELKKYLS
UniProt Q9NP79: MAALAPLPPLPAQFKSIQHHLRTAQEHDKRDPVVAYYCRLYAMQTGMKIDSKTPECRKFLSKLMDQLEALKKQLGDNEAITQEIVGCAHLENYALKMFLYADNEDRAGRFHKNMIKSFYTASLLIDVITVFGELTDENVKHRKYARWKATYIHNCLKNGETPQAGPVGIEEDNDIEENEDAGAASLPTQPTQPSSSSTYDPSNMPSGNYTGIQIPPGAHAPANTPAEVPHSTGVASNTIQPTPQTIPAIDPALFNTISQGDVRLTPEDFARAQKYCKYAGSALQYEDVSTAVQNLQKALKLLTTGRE

Compound: Nc1ncnc2c1ncn2[C@@H]1O[C@H](COP(=O)(O)OP(=O)(O)NP(=O)(O)O)[C@@H](O)[C@H]1O [adenylyl imidodiphosphate]
Assay: NP40-soluble protein abundance relative to vehicle (solubility fold change) (ratio); higher = more soluble protein in presence of AMP-PNP
Summary of the method: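 Crude Jurkat lysate, prepared by Dounce homogenisation, was exposed to eight concentrations from 0.1 to 10 mM for 10 min at room temperature and then 3 min at 37 °C. Solubilisation used 0.8% NP40 with benzonase for 60 min at 4 °C, followed by ultracentrifugation and TMT labelling of the supernatant for LC-MS/MS. After vsn normalisation of intensities, each value is the fold change against the detergent-processed vehicle within each replicate, across three independent experiments.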

Target	NP40-soluble protein abundance (concentration: 1mM)	NP40-soluble protein abundance (concentration: 2mM)	NP40-soluble protein abundance (concentration: 4mM)	NP40-soluble protein abundance (concentration: 6mM)	NP40-soluble protein abundance (concentration: 8mM)	NP40-soluble protein abundance (concentration: 10mM)
A0A087WYN9|Q7Z478 (UniProt Q7Z478)	1.31 ± 0.067	1.49 ± 0.079	1.73 ± 0.18	1.9 ± 0.22	2.01 ± 0.24	2.1 ± 0.29
A0A0B4J1Z1|C9JAB2 and related entries (UniProt Q16629)	1.04 ± 0.073	1.01 ± 0.025	0.986 ± 0.014	0.995 ± 0.02	0.945 ± 0.045	1 ± 0.076
A0A087WYW3|P30414 (UniProt P30414)	1.034 ± 0.0047	1.05 ± 0.052	1.08 ± 0.05	1.109 ± 0.011	1.11 ± 0.026	1.14 ± 0.036
A0A087X1N3|O75818 and related entries (UniProt O75818)	1.01 ± 0.031	0.943 ± 0.089	0.9846 ± 0.0025	0.967 ± 0.027	0.986 ± 0.027	0.941 ± 0.077
A0A0C4DFM2|Q6ZN55 and related entries (UniProt Q6ZN55)	1 ± 0.031	1.001 ± 0.0041	0.972 ± 0.045	0.978 ± 0.01	0.976 ± 0.026	0.938 ± 0.025
A0A0U1RR27|Q7Z401 and related entries (UniProt Q7Z401)	1.016 ± 0.01	1.09 ± 0.019	0.978 ± 0.044	0.994 ± 0.017	0.952 ± 0.02	0.96 ± 0.011
A0A0A0MRJ0|Q5VT25 and related entries (UniProt Q5VT25)	1.04 ± 0.029	1.1 ± 0.014	1.109 ± 0.0074	1.1 ± 0.073	1.09 ± 0.051	1.14 ± 0.044
A0A0B4J1S8|Q9UBF8 and related entries (UniProt Q9UBF8)	0.999 ± 0.022	1.01 ± 0.034	1.02 ± 0.026	0.969 ± 0.039	0.977 ± 0.016	0.961 ± 0.034
A0A0C4DFW4|Q5JUR7 (UniProt Q5JUR7)	1 ± 0.025	1.01 ± 0.02	1.03 ± 0.028	1.03 ± 0.06	1.02 ± 0.05	1.04 ± 0.028
A0A0A0MT72|Q9BSQ5 and related entries (UniProt Q9BSQ5)	0.981 ± 0.017	0.978 ± 0.034	0.9492 ± 0.0069	0.954 ± 0.016	0.978 ± 0.022	0.96 ± 0.028
A0A0A0MTS7|Q8WZ42-12 (UniProt Q8WZ42)	0.981 ± 0.023	0.984 ± 0.022	0.9833 ± 0.0072	0.989 ± 0.03	0.988 ± 0.043	1 ± 0.023
A0A0U1RRB3|Q8IYT2 (UniProt Q8IYT2)	1.01 ± 0.032	0.949 ± 0.07	0.968 ± 0.041	0.96 ± 0.019	0.972 ± 0.04	0.926 ± 0.0076
A0A087X0N3|Q96MY1 (UniProt Q96MY1)	0.9635 ± 0.0067	0.986 ± 0.0099	0.954 ± 0.021	0.959 ± 0.0097	0.9487 ± 0.0075	0.928 ± 0.02
A0A087WYP2|Q8IZQ5 (UniProt Q8IZQ5)	1.01 ± 0.025	1.05 ± 0.066	1.06 ± 0.068	1.09 ± 0.038	1.11 ± 0.011	1.12 ± 0.081
A0A0G2JNW7|Q9Y666 (UniProt Q9Y666)	0.979 ± 0.033	0.999 ± 0.028	1.02 ± 0.029	1.03 ± 0.016	1.039 ± 0.0094	1.01 ± 0.024
A0A096LPC5|A0A0A0MR88|Q9Y4E1 and related entries (UniProt Q9Y4E1)	1.01 ± 0.015	1.07 ± 0.069	1.03 ± 0.059	1.027 ± 0.01	0.998 ± 0.026	0.991 ± 0.044
A0A0A0MRF6|Q99996 and related entries (UniProt Q99996)	1.03 ± 0.064	1.04 ± 0.026	1.04 ± 0.071	0.982 ± 0.062	0.944 ± 0.047	0.961 ± 0.059
A0A0G2JR50|Q86SQ7 and related entries (UniProt Q86SQ7)	1 ± 0.021	1.03 ± 0.047	0.957 ± 0.049	0.935 ± 0.027	0.949 ± 0.024	0.94 ± 0.028
A0A0A0MQY7|Q5VU97 (UniProt Q5VU97)	0.9824 ± 0.0077	1 ± 0.013	0.981 ± 0.013	0.9848 ± 0.0053	0.9836 ± 0.0034	0.987 ± 0.017
A0A0B4J2F8|A6NFM0 and related entries (UniProt Q9GZM3+Q9H1A7+P52435+F6S314+E2QRJ6+A6NFM0)	0.961 ± 0.012	0.998 ± 0.042	0.939 ± 0.037	0.99 ± 0.031	1.03 ± 0.015	0.965 ± 0.12
A0A087WY96|P31641 (UniProt P31641)	1.01 ± 0.033	1.01 ± 0.044	0.985 ± 0.029	1 ± 0.021	1.03 ± 0.015	0.995 ± 0.026
A0A0C4DFN1|Q8IWA4 (UniProt Q8IWA4)	0.999 ± 0.019	1.02 ± 0.012	1.01 ± 0.029	0.979 ± 0.022	0.986 ± 0.023	1 ± 0.049
A0A5E8 and related entries (UniProt Q99501)	1.03 ± 0.011	1.02 ± 0.054	1.02 ± 0.014	1.01 ± 0.02	1.02 ± 0.038	1.03 ± 0.029
A0A0A0MQX8|Q9NR56 and related entries (UniProt Q9NR56)	0.997 ± 0.04	1.07 ± 0.068	0.998 ± 0.065	1.04 ± 0.029	0.995 ± 0.026	1.04 ± 0.033
A0A087WW84|Q14114 and related entries (UniProt Q14114)	1 ± 0.022	1 ± 0.016	0.9971 ± 0.0034	1 ± 0.014	0.974 ± 0.016	1 ± 0.031
A0A0A0MTR7|A0A0A0MTC1|Q63HN8 and related entries (UniProt Q63HN8)	0.955 ± 0.037	0.9 ± 0.082	0.9838 ± 0.0042	0.959 ± 0.03	1 ± 0.058	0.952 ± 0.065
A0A087WY55|Q9NP79 (UniProt Q9NP79)	0.98 ± 0.07	1.03 ± 0.06	0.973 ± 0.092	0.945 ± 0.11	0.979 ± 0.069	0.891 ± 0.11
A0A087WZ32|A0A087X038|A8K727 and related entries (UniProt Q9HB19)	1 ± 0.048	1.02 ± 0.073	0.997 ± 0.069	0.985 ± 0.061	0.992 ± 0.063	1.02 ± 0.081

Whole records from above. Values in the order: NP40-soluble protein abundance (concentration: 1mM)	NP40-soluble protein abundance (concentration: 2mM)	NP40-soluble protein abundance (concentration: 4mM)	NP40-soluble protein abundance (concentration: 6mM)	NP40-soluble protein abundance (concentration: 8mM)	NP40-soluble protein abundance (concentration: 10mM)
A0A0B4J1S8|Q9UBF8 and related entries (UniProt Q9UBF8) in the list: 0.999 ± 0.022	1.01 ± 0.034	1.02 ± 0.026	0.969 ± 0.039	0.977 ± 0.016	0.961 ± 0.034
A0A087WZ32|A0A087X038|A8K727 and related entries (UniProt Q9HB19) in the list: 1 ± 0.048	1.02 ± 0.073	0.997 ± 0.069	0.985 ± 0.061	0.992 ± 0.063	1.02 ± 0.081
